Measurements published in patent US20110301335A1 (published 2011).
These are yes or no findings as the source states them, for the method shown. Some entries that bind do so weakly or less than the wild type.

Key:
[1] = target: T1, mouse TNFR1 (R&D systems cat no. 425-R1-050/CF) (mouse) (UniProt P25118); experiment: BIAcore, biotinylated mouse TNFR1 on SA chip, alone and after DOM1m-21-23 (concentration not given)
T1 sequence (biotinylated with EZ-Link NHS-LC-LC-biotin, looked up): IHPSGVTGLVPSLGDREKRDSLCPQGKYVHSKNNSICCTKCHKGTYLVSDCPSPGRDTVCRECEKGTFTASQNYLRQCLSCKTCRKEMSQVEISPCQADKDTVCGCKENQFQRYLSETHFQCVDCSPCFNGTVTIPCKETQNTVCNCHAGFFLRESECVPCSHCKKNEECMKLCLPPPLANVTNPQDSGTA

[2] = target: T1, mouse TNFR1 (R&D systems cat no. 425-R1-050/CF) (mouse); experiment: BIAcore, biotinylated mouse TNFR1 on SA chip, dAb at 1 µM
[3] = target: T1, mouse TNFR1 (R&D systems cat no. 425-R1-050/CF) (mouse); experiment: BIAcore sequential injection on biotinylated mouse TNFR1; after DOM1m-21-23
[4] = target: T1, mouse TNFR1 (R&D systems cat no. 425-R1-050/CF) (mouse); experiment: BIAcore

Measured: binding

B1: DOM1h-574-16 (other)
VH: EVQLLESGGGLVQPGGSLRLSCAASGFTFVKYSMGWVRQAPGKGPEWVSQISNTGDRTYYADSVKGRFTISRDNSKNTLYLQMNSLRAEDTAVYYCAIYTGRWEPFDYWGQGTLVTVSS
binds: all assays above
